Experimental data: PubChem BioAssay AID1508597 (Cure First, 2020)

- Purpose: 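Genes whose silencing sensitises or protects ovarian cancer cells against rucaparib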 (primary screen)
- System: human ovarian carcinoma lines grown from tumours: OCI-P5x (papillary serous) and OCI-C5x (clear cell)
- Reagents: siRNA pool against human genes, 1.25 pmol siRNA per well
- Duration: 72 h or 96 h, depending on the cell culture
- Treatment: rucaparib 20 µM (about IC30) or vehicle, present until read-out
- Rucaparib or vehicle: Rucaparib
- Cell line: OCI-P5x (serous)
- Measured: 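ATP luminescence measured at 72 or 96 h according to the culture, then normalised and expressed as percent viability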
- Reading the numbers: viability, normalised: higher = more viable cells remaining
- Rule for the call: 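a well counts as a hit if its normalised viability is under 80 percent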
- Calls: active = viability under 80%; inactive = viability 80% or more
Shown is a random part of the about 2,100 reagents, in one setting of the screen. 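Calls flag viability under 80% in either arm, not effects specific to rucaparib; the reference for percent is not stated.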 A reagent listed more than once was tested more than once; the source does not tell the runs apart. Reagent sequences are not shown. Not stated in the record: the 100% reference.

no.	gene symbol	technical replicate	viability, normalised (%)	Call
1	PLCH2 (phospholipase C eta 2)	1	69.1	active
2	PLCH2 (phospholipase C eta 2)	2	59.2	active
3	PLCH2 (phospholipase C eta 2)	3	71.5	active
4	MORC1 (MORC family CW-type zinc finger 1)	1	49.2	active
5	MORC1 (MORC family CW-type zinc finger 1)	2	50.5	active
6	MORC1 (MORC family CW-type zinc finger 1)	3	57.8	active
7	ATAT1 (alpha tubulin acetyltransferase 1)	1	65.2	active
8	ATAT1 (alpha tubulin acetyltransferase 1)	2	77.4	active
9	ATAT1 (alpha tubulin acetyltransferase 1)	3	74.4	active
10	BRCA2 (BRCA2 DNA repair associated)	1	45.7	active
11	BRCA2 (BRCA2 DNA repair associated)	1	55.2	active
12	BRCA2 (BRCA2 DNA repair associated)	1	59.8	active
13	BRCA2 (BRCA2 DNA repair associated)	2	42.2	active
14	BRCA2 (BRCA2 DNA repair associated)	2	57.5	active
15	BRCA2 (BRCA2 DNA repair associated)	2	72.3	active
16	BRCA2 (BRCA2 DNA repair associated)	3	55	active
17	BRCA2 (BRCA2 DNA repair associated)	3	48	active
18	BRCA2 (BRCA2 DNA repair associated)	3	55.7	active
19	EYA2 (EYA transcriptional coactivator and phosphatase 2)	1	49.9	active
20	EYA2 (EYA transcriptional coactivator and phosphatase 2)	2	60.8	active
21	EYA2 (EYA transcriptional coactivator and phosphatase 2)	3	33.2	active
22	FOS (Fos proto-oncogene, AP-1 transcription factor subunit)	1	61.2	active
23	FOS (Fos proto-oncogene, AP-1 transcription factor subunit)	2	66.2	active
24	FOS (Fos proto-oncogene, AP-1 transcription factor subunit)	3	82.6	inactive
25	PADI4 (peptidyl arginine deiminase 4)	1	54.4	active
26	PADI4 (peptidyl arginine deiminase 4)	2	65.7	active
27	PADI4 (peptidyl arginine deiminase 4)	3	53	active

Next part; the last 2 above are carried over.
no.	gene symbol	technical replicate	viability, normalised (%)	Call
26	PADI4 (peptidyl arginine deiminase 4)	2	65.7	active
27	PADI4 (peptidyl arginine deiminase 4)	3	53	active
28	CHD1 (chromodomain helicase DNA binding protein 1)	1	83.6	inactive
29	CHD1 (chromodomain helicase DNA binding protein 1)	2	65	active
30	CHD1 (chromodomain helicase DNA binding protein 1)	3	72.4	active
31	SGK1 (serum/glucocorticoid regulated kinase 1)	1	106	inactive
32	SGK1 (serum/glucocorticoid regulated kinase 1)	2	103	inactive
33	SGK1 (serum/glucocorticoid regulated kinase 1)	3	85.7	inactive
34	DCLK3 (doublecortin like kinase 3)	1	116	inactive
35	DCLK3 (doublecortin like kinase 3)	2	112	inactive
36	DCLK3 (doublecortin like kinase 3)	3	92	inactive
37	TXK (TXK tyrosine kinase)	1	77.6	active
38	TXK (TXK tyrosine kinase)	1	59.8	active
39	TXK (TXK tyrosine kinase)	2	79.5	active
40	TXK (TXK tyrosine kinase)	2	52.3	active
41	TXK (TXK tyrosine kinase)	3	67.6	active
42	TXK (TXK tyrosine kinase)	3	65.7	active
